Assay results: patent US5310929A, “Prodrugs of imidazole carboxylic acids as angiotensin II receptor antagonists” (E. I. Du Pont de Nemours and Company, priority 1992, dated 1994)
At least one structure is not confirmed: it was looked up by name or label, or the drawing left a doubt.

Target: AII receptor
Assay: Ligand-receptor binding assay, displacement of [125I]AII from rat adrenal cortex particulate fraction
Details: 0.05 nM [125I]AII, 1 h incubation, read-out: Angiotensin II Receptor Binding IC50
Method: Angiotensin-II (AII) produces numerous biological responses (e.g. vasoconstriction) through stimulation of its receptors on cell membranes. […] After a 1 h incubation the reaction was terminated by addition of cold assay buffer. The bound and free radioactivity were rapidly separated through glass-fiber filters, and the trapped radioactivity was quantitated by scintillation counting.

CCCc1nc(CC)c(C(=O)OC(C)OC(C)=O)n1Cc1ccc(-c2ccccc2-c2nn[nH]n2)cc1 (stereo not shown) [Example 10, 1-Acetoxyethyl 4-ethyl-2-propyl-1-[[2'-(tetrazol-5-yl)biphenyl-4-yl]methyl]imidazole-5-carboxylate]
IC50: 20 nM
